# According to PubChem BioAssay (NCATS):
# Values joined by “and” are separate entries in the source; they are usually repeats but may differ in a detail not shown here. Identical values can stand only once. Some of the results follow. Further columns of the screen follow, without active or inactive calls. The list favours compounds with an active or inconclusive main result. The note in brackets gives the kind of curve behind each potency; many fits are weak.
# Assay: qHTS for identification of novel therapeutic agents for treatment of microphthalmiaassociated transcription factor (MiT) renal cell carcinoma (RCC) (AID 1963991)
# Settings: CellTiter-Glo, 48 h; for z-score: stronger effect = lower value
# Summary of the method: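 Viability of three TFE3-fusion renal carcinoma lines measured by CellTiter-Glo after 48 h treatment with each of 1912 compounds at 11 concentrations. Responses scaled between DMSO (100%) and empty wells (0%) before curve fitting.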
# [1] = TFE3-RCC UOK109 viability, measured here: UOK109 Z-AUC
# [2] = TFE3-RCC viability, measured here: UOK124 Z-AUC
# [3] = TFE3-RCC viability, measured here: UOK145 Z-AUC
# [4] = TFE3-RCC viability, measured here: UOK145 cell viability
# [5] = TFE3-RCC viability, measured here: UOK124 cell viability
SMILES,z-score [1],z-score [2],z-score [3],AC50 [4],AC50 [5]
O=c1ccn([C@@H]2O[C@H](CO)[C@H](O)[C@@H]2F)c(=O)[nH]1,0.194,0.675,0.48,"26.4 µM [falling, partial curve]",
Cc1ccc([C@@H]2O[C@H](CO)[C@@H](O)[C@H](O)[C@@H]2O)cc1Cc1ccc(-c2ccc(F)cc2)s1,0.469,0.723,0.576,,"26.4 µM [falling, single point]"
CC(C=CC1=C(C)CCCC1(C)C)=CC=CC(C)=CC(=O)O,0.185 and -0.121,0.499 and 0.972,-0.514 and 0.196,"33.2 µM [falling, single point] and 20.9 µM [falling, partial curve, poor fit]",
CN(C[C@@H]1COCCO1)S(=O)(=O)Nc1ccc2ccc3ncc(-c4cnn(C)c4)cc3c(=O)c2c1,-0.165,0.601,-0.335,"16.6 µM [falling, partial curve]",
O=C(Nc1nc2ccccc2n1CCN1CCOCC1)c1cccc([N+](=O)[O-])c1,0.882,-2.47,0.745,,"18.7 µM [falling, partial curve, poor fit]"
OCc1ccc(-c2ccc(-c3ccc(CO)s3)o2)s1,-2.15,0.754,-1.25,"23.5 µM [falling, single point]",
O=C(O)c1ccc(-c2cc3cccnc3c(-c3ccc4nonc4c3)n2)cc1,0.0059,-0.0934,0.244,"23.5 µM [falling, single point]","18.7 µM [falling, partial curve]"
Nc1nc2[nH]cc(CCc3ccc(C(=O)N[C@@H](CCC(=O)O)C(=O)O)cc3)c2c(=O)[nH]1,0.597,-2.07,-0.844,"1.05 µM [falling, full curve]","0.118 µM [falling, full curve]"
COc1ccc2c(c1)CC[C@@H](CN(C)CC(=O)O)[C@H]2c1ccccc1,0.147,0.047,0.0995,"4.69 µM [falling, full curve]","4.69 µM [falling, full curve]"
COc1ccc(C(=O)CC(=O)c2ccc(C(C)(C)C)cc2)cc1,0.0737,0.308,0.53,"6.62 µM [falling, full curve]","13.2 µM [falling, partial curve]"
COc1ccc2cc1Oc1ccc(cc1)C[C@H]1c3cc(c(OC)cc3CCN1C)Oc1c(OC)c(OC)cc3c1[C@H](C2)N(C)CC3,-0.211,0.216,0.15,"14.8 µM [falling, partial curve, poor fit]","11.8 µM [falling, partial curve, poor fit]"
CN1CCCN(C(=O)c2cccc(-c3ccc(C=C4C(=O)Nc5ccc(Cl)cc54)o3)c2)CC1,0.105,-0.878,0.329,"23.5 µM [falling, partial curve]","14.8 µM [falling, partial curve]"
CCC(C=C[C@@H]1OC(=O)C=C[C@H]1C)=C[C@H](C)CC=CC(C)=C[C@@H](C)C(=O)[C@@H](C)[C@H](O)[C@@H](C)CC(C)=CC(=O)O,0.476,0.183,0.257,"0.0621 µM [falling, full curve]","0.0392 µM [falling, full curve]"
CC1CCN(c2cc(N3CCN(C)CC3)ccc2NC(=O)c2cc(C#N)c[nH]2)CC1,0.867,-0.647,0.209,"20.9 µM [falling, single point]","18.7 µM [falling, partial curve, poor fit]"
Cc1[nH]c(C=C2C(=O)Nc3ccc(S(=O)(=O)Cc4c(Cl)cccc4Cl)cc32)c(C)c1C(=O)N1CCC[C@H]1CN1CCCC1,0.251,0.14,0.214,"26.4 µM [falling, partial curve]","16.6 µM [falling, partial curve]"
Cc1ccc(S(=O)(=O)NC(=O)NN2CC3CCCC3C2)cc1 (centres undefined),-1.13,-0.281,0.558,"18.7 µM [falling, single point]","26.4 µM [falling, partial curve]"
COC1=C2C[C@@H](C)C[C@H](OC)[C@@H](O)[C@@H](C)C=C(C)[C@H](OC(N)=O)[C@@H](OC)C=CC=C(C)C(=O)NC(=CC1=O)C2=O,-0.592,0.305,-0.61,"4.69 µM [falling, full curve]","3.72 µM [falling, full curve]"
